This is one part of the list.

Sequences of proteins named here, by UniProt entry; tags and fusion partners are left off.
UniProt Q0JBA9, entry or part of it: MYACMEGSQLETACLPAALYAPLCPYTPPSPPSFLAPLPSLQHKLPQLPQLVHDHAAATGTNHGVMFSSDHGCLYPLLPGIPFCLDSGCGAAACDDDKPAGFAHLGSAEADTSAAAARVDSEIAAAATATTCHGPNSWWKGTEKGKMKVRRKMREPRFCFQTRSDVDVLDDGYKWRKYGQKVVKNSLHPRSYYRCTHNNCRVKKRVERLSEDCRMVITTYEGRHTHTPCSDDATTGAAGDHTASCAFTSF

For the assay, the target named is OsWRKY34 (Oryza sativa, UniProt Q0JBA9 1-250). Put plainly: protein-binding microarray (RPBM); PBS, 2% BSA, 51.3 ng/ul salmon testes DNA, 50 uM zinc acetate, 200 nM TF, 25 C, 1 h; high values mean tight binding. Particulars: protein: recombinant; tags: N-terminal polyhistidine and DsRed monomer fusion (pET32a); label: CyDye5-dUTP incorporated in the synthesized complementary strand; 3' TTTTT single-stranded linker to array surface; dsDNA, one strand shown. The essentials: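 Polyhistidine-tagged DsRed fusions of transcription factors, joined at the N-terminus, were expressed in E. coli BL21-CodonPlus and isolated on Ni–NTA. They were incubated at 200 nM for 1 h at 25 °C on a custom Agilent array, double-stranded and BSA-blocked, in PBS with 2% BSA, salmon testes DNA and 50 µM zinc acetate. The binding signal is per-feature fluorescence intensity (arbitrary units) read on an Axon 4000B scanner after washing.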
In the case of “AGTTTCATGTTTTTCATGGGTATCTAATCTGAGCCGTTGACGGAGTCACCTAGTGCAG”, the binding signal was 9110 fluorescence intensity (a.u.).
For “TACCTGCTGCACTTTGCCATCCATCGATTTGATTTTATATCGGAGTCACCTAGTGCAG” the value was 8880 fluorescence intensity (a.u.).
Consider “AAGTTCCTTTTATGCATAGGCCGTGTTTAGTTCAGCGCAACGGAGTCACCTAGTGCAG”, for which the binding signal is 10800 fluorescence intensity (a.u.).
For the sequence “GAAACAGGCGCACATCCCACACCTACCCATTTGACCGTACCGGAGTCACCTAGTGCAG”, the binding signal was 8220 fluorescence intensity (a.u.).
Regarding “TTCTGTTTCATATTATAATAAGTAATTTGACTTTTTCCTTCGGAGTCACCTAGTGCAG”, the binding signal is 8330 fluorescence intensity (a.u.).
For “TGGGAGGTCTCGTGGTGAATATTCCGCCGCTCGGTATCTTCGGAGTCACCTAGTGCAG” the value was 8140 fluorescence intensity (a.u.); for “ATCAAACCTTTCATACACACAACTTTTCTATCACATCGTACGGAGTCACCTAGTGCAG”, 8560 fluorescence intensity (a.u.); for “ACAGATTTTGTATGAATTACACTAACTTCTCCGAATCTACCGGAGTCACCTAGTGCAG”, 9500 fluorescence intensity (a.u.).
For “AAAATCTCGTTCCGTAAATTTACGAGTTAACCCTTGTCCACGGAGTCACCTAGTGCAG”, the binding signal was 8250 fluorescence intensity (a.u.).
Consider “AGATTTTGGGTGGATGTGACAATATATATATATATATATACGGAGTCACCTAGTGCAG”, for which the binding signal is 11800 fluorescence intensity (a.u.).
As to “GGGTGCATTGATGTTTTTGAAAGCTATTATAGGATCAATCCGGAGTCACCTAGTGCAG”, the binding signal is 8220 fluorescence intensity (a.u.).
For “AGCACCGGCATCCGGATCCGCCGTCCCCGGGCGTCCACCTCGGAGTCACCTAGTGCAG” the value was 8640 fluorescence intensity (a.u.).
As to “GATCATCTGTAGTCTGTAGAACAATCCTGTTTTCTATTCTCGGAGTCACCTAGTGCAG”, the binding signal was 8310 fluorescence intensity (a.u.).
For the sequence “ACATCTCTATCTCCGGATCTCATCTCACTCCGCTAGCTTTCGGAGTCACCTAGTGCAG”, the binding signal was 9700 fluorescence intensity (a.u.).
Consider “AAATCATTTAGAAACACAACCTTTTCCACTGTTCAGGATTCGGAGTCACCTAGTGCAG”, for which the binding signal is 8030 fluorescence intensity (a.u.).
In the case of “ACTACCAACAGATCAGCAGATAGCCTATTCCAATCCGTTCCGGAGTCACCTAGTGCAG”, the binding signal was 8320 fluorescence intensity (a.u.).
Under “TCCAACGCGCCTCTTCACTTCGTCCTCTGCCACGTCTTGTCGGAGTCACCTAGTGCAG” stands 13100 fluorescence intensity (a.u.); under “TTCAGACTTGTGAATTTTGGTCCAATTTGTCGTGTCAATTCGGAGTCACCTAGTGCAG”, 9740 fluorescence intensity (a.u.).
“GGGGCCGGGTGTACTGTTTGGTGGTACTGCAGCCGTCGAGCGGAGTCACCTAGTGCAG”: the binding signal is 10400 fluorescence intensity (a.u.).
Turning to “TAGATCCCTACTCATTTCTTATTATTTTAATTTCCTTATGCGGAGTCACCTAGTGCAG”, the binding signal was 8700 fluorescence intensity (a.u.).
Regarding “GCAGATCACAGATCCGGTTCAATCTTCACCGTGTTTATTACGGAGTCACCTAGTGCAG”, the binding signal is 8760 fluorescence intensity (a.u.).
As to “TAATAGATGACGCCGTTGACTTTTTCTCACATGTTTGACCCGGAGTCACCTAGTGCAG”, the binding signal is 33000 fluorescence intensity (a.u.).
As for “GCATTTGCTAGAACAATCACTACTCGCGTCGACCAGATCTCGGAGTCACCTAGTGCAG”, the binding signal is 9480 fluorescence intensity (a.u.).
On to “GGCCTCTCGTCTCGCCTCGACTCGCCGGGATTTCCCGAACCGGAGTCACCTAGTGCAG”, for which the binding signal is 8270 fluorescence intensity (a.u.).
Under “CGTCTATTTTTTTTATTCAACGGTAGTTTCCAGGTTTACACGGAGTCACCTAGTGCAG” stands 9990 fluorescence intensity (a.u.); under “TCATTATAGAAGAGATTCTGCAGTATCTGGTTGGTTTCCTCGGAGTCACCTAGTGCAG”, 8240 fluorescence intensity (a.u.); under “CATCTCAATTTGGATCTTTGGTCCCCACTTTGCATGCCATCGGAGTCACCTAGTGCAG”, 8760 fluorescence intensity (a.u.).
Under “CATATATTTCACTCTTCTTTTAATCATTACAACTTCTTCTCGGAGTCACCTAGTGCAG” stands 8810 fluorescence intensity (a.u.); under “GTTAGGGTTTTTTTTATTTTTCGATTTTTTTTGTGTTTTTCGGAGTCACCTAGTGCAG”, 12000 fluorescence intensity (a.u.); under “TCTGTTGCCTCTCTGCTTTCTCGTGCAGCCCGTCTCGTACCGGAGTCACCTAGTGCAG”, 8960 fluorescence intensity (a.u.).
Turning to “TCTTCTTTTTCACCCAATTACCTATATGCTTAGCTCATCACGGAGTCACCTAGTGCAG”, the binding signal is 8320 fluorescence intensity (a.u.).
For the sequence “GTCAATGGCCTGCTCGGTGCTCTCTCTTGCGTCGATGGCCCGGAGTCACCTAGTGCAG”, the binding signal is 9190 fluorescence intensity (a.u.).
Take “TTCACCACGTGTCAGCCTCTGATTGGCCGCTCCTCTTTGCCGGAGTCACCTAGTGCAG”: the binding signal was 8790 fluorescence intensity (a.u.).
Turning to “TATTTCGTACGTGCTTATCTTTTTCTTGATTAATTAAATACGGAGTCACCTAGTGCAG”, the binding signal was 8380 fluorescence intensity (a.u.).
In the case of “TTTCTGCTTGCCTCGCTCTCTCGCATCGTCGCATTGGTACCGGAGTCACCTAGTGCAG”, the binding signal is 11100 fluorescence intensity (a.u.).
Consider “ATCCCTTTTTTCCCCTGGATTTTAACCGTGTGCAATTTGGCGGAGTCACCTAGTGCAG”, for which the binding signal was 8600 fluorescence intensity (a.u.).
Regarding “CTTTGCTACTCGCTATATATACGCTCTCCACCCGTCTCGCCGGAGTCACCTAGTGCAG”, the binding signal is 9370 fluorescence intensity (a.u.).
Regarding “GTCTACAACCACGCGCCGCCACCGTCCTTACCGCCGCCCGCGGAGTCACCTAGTGCAG”, the binding signal was 10300 fluorescence intensity (a.u.).
“TTTGTACCCTTAGTCATCGTGTTCATCTGAGTTGTTTCTGCGGAGTCACCTAGTGCAG”: the binding signal was 8340 fluorescence intensity (a.u.).
“ATCCCAGCAACTTGTATCAATTAAATGCTTTGCTTAGTCTCGGAGTCACCTAGTGCAG”: the binding signal is 8580 fluorescence intensity (a.u.).
Regarding “GTTTTTACCTCCATAATGGAACTACTTTTAATGTCATGACCGGAGTCACCTAGTGCAG”, the binding signal is 9320 fluorescence intensity (a.u.).
As for “CTCTCCCATTCTGGCCCAACTATCCCGCTCCGGCCTAATACGGAGTCACCTAGTGCAG”, the binding signal is 8430 fluorescence intensity (a.u.).

Source of the values: article PMC7819943, “Rice protein-binding microarrays: a tool to detect cis-acting elements near promoter regions in rice”.
